* marks the point of attachment. Cbz = O=C(OCc1ccccc1)*; OBn = c1ccc(CO*)cc1
Assay: general procedure: solution-phase peptide synthesis; isobutyl chloroformate/N-methylmorpholin/HOSu; azide method (isoamylnitrite)

Substance	step yield (coupling step)	step yield (late stage modification step)
Cbz-D(OBn)EES-OH	81.1%	–
Cbz-K(Cbz)SDEES-OH	72.0%	–
H-KSDEES-OH	–	83.5%
